Results as given in PMC8931425, “The cytosolic Arabidopsis thaliana cysteine desulfurase ABA3 delivers sulfur to the sulfurtransferase STR18” (The Journal of Biological Chemistry, 2022).
These are yes or no findings as the source states them, for the method shown. In cells and extracts the contact can be indirect. Some results given as binding are weak or reduced against the parent protein; the word gives no strength. Where a sequence is shown, tags or fusion partners need not be part of it.

What was measured:
Experiment in all cases: split reporter; split-luciferase complementation; nLuc and cLuc fusions coexpressed in Nicotiana benthamiana leaves after Agrobacterium-mediated transient transformation; 1 mM luciferin sprayed, luminescence imaged
[1] = target: T1, ABA3-nLuc (Arabidopsis thaliana) (UniProt Q9C5X8)
T1 sequence: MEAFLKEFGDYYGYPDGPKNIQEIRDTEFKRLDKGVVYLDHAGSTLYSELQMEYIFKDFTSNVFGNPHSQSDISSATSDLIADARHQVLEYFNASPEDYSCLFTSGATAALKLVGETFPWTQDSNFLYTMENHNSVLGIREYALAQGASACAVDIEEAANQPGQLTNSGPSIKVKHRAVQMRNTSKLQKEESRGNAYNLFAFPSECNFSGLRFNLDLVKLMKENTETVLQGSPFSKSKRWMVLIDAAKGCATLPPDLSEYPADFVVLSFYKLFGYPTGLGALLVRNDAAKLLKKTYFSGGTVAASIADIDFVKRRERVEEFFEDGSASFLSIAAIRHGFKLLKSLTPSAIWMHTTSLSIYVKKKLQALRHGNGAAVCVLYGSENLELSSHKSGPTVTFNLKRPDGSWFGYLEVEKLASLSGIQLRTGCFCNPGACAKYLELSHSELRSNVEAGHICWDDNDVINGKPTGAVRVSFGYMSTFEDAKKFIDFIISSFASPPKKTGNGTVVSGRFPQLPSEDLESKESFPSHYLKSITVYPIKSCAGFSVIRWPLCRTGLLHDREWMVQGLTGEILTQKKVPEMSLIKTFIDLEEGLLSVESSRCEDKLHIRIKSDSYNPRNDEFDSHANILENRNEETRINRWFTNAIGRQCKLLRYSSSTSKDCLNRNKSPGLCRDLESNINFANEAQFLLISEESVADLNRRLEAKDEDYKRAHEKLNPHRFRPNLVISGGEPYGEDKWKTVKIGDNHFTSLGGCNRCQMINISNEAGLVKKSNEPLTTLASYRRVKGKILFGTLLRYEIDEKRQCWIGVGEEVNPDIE

[2] = target: T2, cLuc-ABA3 (Arabidopsis thaliana) (UniProt Q9C5X8)
T2 sequence: T1 sequence

[3] = target: T3, STR18-nLuc (Arabidopsis thaliana) (UniProt Q9FKW8)
T3 sequence: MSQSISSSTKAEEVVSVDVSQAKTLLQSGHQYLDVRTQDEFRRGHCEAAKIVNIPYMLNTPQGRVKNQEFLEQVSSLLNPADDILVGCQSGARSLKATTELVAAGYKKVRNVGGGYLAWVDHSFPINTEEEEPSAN

B1: cLuc-STR18 (enzyme, UniProt Q9FKW8 1-136)
chain: T3 sequence
In the case of B1, the binding [1] is reported as “binds”.

B2: STR18-nLuc (enzyme, UniProt Q9FKW8 1-136)
chain: T3 sequence
With B2 the binding [2] was “binds”.

B3: cLuc-ACL1 (protein, UniProt Q9SGY2 1-423)
chain: MARKKIREYDSKRLVKEHFKRLSGKELPIRSVQINETTDLNELVEKEPWLSSEKLVVKPDMLFGKRGKSGLVALKLDFADVATFVKERLGKEVEMSGCKGPITTFIVEPFVPHNEEYYLNVVSDRLGCSISFSECGGIEIEENWDKVKTIFLPTGASLTPEICAPLVATLPLEIKAEIEEFIKVIFTLFQDLDFTFLEMNPFTLVDGSPYPLDMRGELDDTAAFKNFKKWGDIEFPLPFGRVMSPTESFIHGLDEKTSASLKFTVLNPKGRIWTMVAGGGASVIYADTVGDLGYASELGNYAEYSGAPKEDEVLQYARVVIDCATANPDGKSRALVIGGGIANFTDVAATFNGIIRALKEKEAKLKAARMHIFVRRGGPNYQKGLAKMRALGDDIGVPIEVYGPEATMTGICKEAIQYITAAA
B3 was tested, and the binding [3] was “no binding” and the binding [1] was “no binding”.
